{"source": "PubChem BioAssay AID1259405, NCATS – 2018", "test": "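Knock-downs that lift recombinant protein yield in hamster ovary cells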 (primary screen)", "cell system": "Chinese hamster CHO-K1 ovary cells with stable secreted eGFP expression", "knock-down reagent": "single siRNA against mouse genes, 0.8 pmol siRNA per well (2 µl of 400 nM stock)", "timing": "3 days", "detection": "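Percent of the per-plate non-targeting control median for intracellular GFP per well by laser scanning cytometry and for cell viability by ATP luminescence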", "direction": "GFP, % of control: higher = more GFP per well, higher productivity; viability (ATP), % of control: higher = more viable cells (more ATP)", "call rule": "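Called active when intracellular GFP, relative to negative control, is at or above 120%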", "note": "This is an unselected part of about 50,000 deposited reagents. Over the whole deposit, about 4,000 (8%) are marked active. 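Mouse siRNA library applied to hamster cells; one well for each siRNA.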 The numbers tell different reagents against one gene apart."}
{"gene knocked down":"Ptcd1 (GeneID 71799)","siRNA no.":1,"GFP, % of control":120,"viability (ATP), % of control":100,"call":"inactive"}
{"gene knocked down":"Ptcd1 (GeneID 71799)","siRNA no.":2,"GFP, % of control":64.8,"viability (ATP), % of control":87.1,"call":"inactive"}
{"gene knocked down":"Ptcd1 (GeneID 71799)","siRNA no.":3,"GFP, % of control":84,"viability (ATP), % of control":65.9,"call":"inactive"}
{"gene knocked down":"Or2b6 (GeneID 218066)","siRNA no.":1,"GFP, % of control":54.6,"viability (ATP), % of control":47.6,"call":"inactive"}
{"gene knocked down":"Or2b6 (GeneID 218066)","siRNA no.":2,"GFP, % of control":36.6,"viability (ATP), % of control":35.6,"call":"inactive"}
{"gene knocked down":"Or2b6 (GeneID 218066)","siRNA no.":3,"GFP, % of control":90.3,"viability (ATP), % of control":106,"call":"inactive"}
{"gene knocked down":"Gsdma (GeneID 57911)","siRNA no.":1,"GFP, % of control":54.4,"viability (ATP), % of control":66.7,"call":"inactive"}
{"gene knocked down":"Gsdma (GeneID 57911)","siRNA no.":2,"GFP, % of control":86.5,"viability (ATP), % of control":80.2,"call":"inactive"}
{"gene knocked down":"Gsdma (GeneID 57911)","siRNA no.":3,"GFP, % of control":101,"viability (ATP), % of control":60,"call":"inactive"}
{"gene knocked down":"Stard3nl (GeneID 76205)","siRNA no.":1,"GFP, % of control":47.7,"viability (ATP), % of control":66.2,"call":"inactive"}
{"gene knocked down":"Stard3nl (GeneID 76205)","siRNA no.":2,"GFP, % of control":81.5,"viability (ATP), % of control":88.7,"call":"inactive"}
{"gene knocked down":"Stard3nl (GeneID 76205)","siRNA no.":3,"GFP, % of control":55.4,"viability (ATP), % of control":55.6,"call":"inactive"}
{"gene knocked down":"Gfer (GeneID 11692)","siRNA no.":1,"GFP, % of control":93.7,"viability (ATP), % of control":111,"call":"inactive"}
{"gene knocked down":"Gfer (GeneID 11692)","siRNA no.":2,"GFP, % of control":58.4,"viability (ATP), % of control":77.2,"call":"inactive"}
{"gene knocked down":"Gfer (GeneID 11692)","siRNA no.":3,"GFP, % of control":63.9,"viability (ATP), % of control":62,"call":"inactive"}
{"gene knocked down":"Timm29 (GeneID 69773)","siRNA no.":1,"GFP, % of control":67,"viability (ATP), % of control":88.3,"call":"inactive"}
{"gene knocked down":"Timm29 (GeneID 69773)","siRNA no.":2,"GFP, % of control":70.4,"viability (ATP), % of control":91.4,"call":"inactive"}
{"gene knocked down":"Timm29 (GeneID 69773)","siRNA no.":3,"GFP, % of control":88.3,"viability (ATP), % of control":71.7,"call":"inactive"}
{"gene knocked down":"Ptpa (GeneID 110854)","siRNA no.":1,"GFP, % of control":90.1,"viability (ATP), % of control":79.9,"call":"inactive"}
{"gene knocked down":"Ptpa (GeneID 110854)","siRNA no.":2,"GFP, % of control":92,"viability (ATP), % of control":58.4,"call":"inactive"}
{"gene knocked down":"Ptpa (GeneID 110854)","siRNA no.":3,"GFP, % of control":66.5,"viability (ATP), % of control":99.9,"call":"inactive"}
{"gene knocked down":"Efcab5 (GeneID 319634)","siRNA no.":1,"GFP, % of control":83.8,"viability (ATP), % of control":77.7,"call":"inactive"}
{"gene knocked down":"Efcab5 (GeneID 319634)","siRNA no.":2,"GFP, % of control":73.3,"viability (ATP), % of control":71.5,"call":"inactive"}
{"gene knocked down":"Efcab5 (GeneID 319634)","siRNA no.":3,"GFP, % of control":72.8,"viability (ATP), % of control":94.8,"call":"inactive"}
{"gene knocked down":"Pstpip1 (GeneID 19200)","siRNA no.":1,"GFP, % of control":120,"viability (ATP), % of control":102,"call":"active"}
{"gene knocked down":"Pstpip1 (GeneID 19200)","siRNA no.":2,"GFP, % of control":92.9,"viability (ATP), % of control":73,"call":"inactive"}
{"gene knocked down":"Sall2 (GeneID 50524)","siRNA no.":1,"GFP, % of control":28,"viability (ATP), % of control":30.7,"call":"inactive"}
{"gene knocked down":"Sall2 (GeneID 50524)","siRNA no.":2,"GFP, % of control":85.7,"viability (ATP), % of control":73.6,"call":"inactive"}
{"gene knocked down":"Sall2 (GeneID 50524)","siRNA no.":3,"GFP, % of control":134,"viability (ATP), % of control":51.7,"call":"active"}

Entries listed above marked active:
{"gene knocked down":"Pstpip1 (GeneID 19200)","siRNA no.":1,"GFP, % of control":120,"viability (ATP), % of control":102,"call":"active"}
{"gene knocked down":"Sall2 (GeneID 50524)","siRNA no.":3,"GFP, % of control":134,"viability (ATP), % of control":51.7,"call":"active"}
